Laboratory results taken from US20130123349A1.
Results are given in words; binding and its absence hold for the method and conditions named. Some results given as binding are weak or reduced against the parent protein; the word gives no strength.

By UniProt entry, the sequences of proteins in these tests, tags left out. Residues count along the entry.
UniProt Q9HCN6, residues 21-267: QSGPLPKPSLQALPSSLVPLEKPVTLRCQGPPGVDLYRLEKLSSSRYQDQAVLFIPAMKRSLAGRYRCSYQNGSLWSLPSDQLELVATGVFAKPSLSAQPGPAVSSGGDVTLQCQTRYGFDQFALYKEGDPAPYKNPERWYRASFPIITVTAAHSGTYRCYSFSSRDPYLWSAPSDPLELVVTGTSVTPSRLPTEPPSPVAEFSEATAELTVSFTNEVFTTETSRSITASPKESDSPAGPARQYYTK

Key:
recombinant GPVI [1] = biological target: recombinant GPVI (UniProt Q9HCN6); experiment: SPR, convulxin injected over immobilized GPVI
recombinant GPVI [2] = biological target: recombinant GPVI (UniProt Q9HCN6); experiment: SPR, convulxin (2.5, 5, 10 nM) over immobilized GPVI
recombinant GPVI [3] = biological target: recombinant GPVI (UniProt Q9HCN6); experiment: SPR, convulxin mixed with 500 nM Aegyptin and injected over immobilized GPVI

Measured: binding

B1: convulxin (ligand)
chain 1: GLHCPSDWYYYDQHCYRIFNEEMNWEDAEWFCTKQAKGAHLVSIKSAKEADFVAWMVTQNIEESFSHVSIGLRVQNKEKQCSTKWSDGSSVSYDNLLDLYITKCSLLKKETGFRKWFVASCIGKIPFVCKFPPQC
chain 2: GFCCPSHWSSYDRYCYKVFKQEMTWADAEKFCTQQHTGSHLVSFHSTEEVDFVVKMTHQSLKSTFFWIGANNIWNKCNWQWSDGTKPEYKEWHEEFECLISRTFDNQWLSAPCSDTYSFVCKFEA
binds: all assays above
